Assay results: publication PMC2671563 (PLoS Biology, 2009)
Results are given in words; binding and its absence hold for the method and conditions named. Some binding calls cover weakened binding; strength is not graded here. Each block holds one binder with its values, some of them ahead of it.

Sequences of proteins named here, by UniProt entry; tags and fusion partners are left off. A change or cut given only in a name is not applied to a line headed by its entry.
UniProt O00206: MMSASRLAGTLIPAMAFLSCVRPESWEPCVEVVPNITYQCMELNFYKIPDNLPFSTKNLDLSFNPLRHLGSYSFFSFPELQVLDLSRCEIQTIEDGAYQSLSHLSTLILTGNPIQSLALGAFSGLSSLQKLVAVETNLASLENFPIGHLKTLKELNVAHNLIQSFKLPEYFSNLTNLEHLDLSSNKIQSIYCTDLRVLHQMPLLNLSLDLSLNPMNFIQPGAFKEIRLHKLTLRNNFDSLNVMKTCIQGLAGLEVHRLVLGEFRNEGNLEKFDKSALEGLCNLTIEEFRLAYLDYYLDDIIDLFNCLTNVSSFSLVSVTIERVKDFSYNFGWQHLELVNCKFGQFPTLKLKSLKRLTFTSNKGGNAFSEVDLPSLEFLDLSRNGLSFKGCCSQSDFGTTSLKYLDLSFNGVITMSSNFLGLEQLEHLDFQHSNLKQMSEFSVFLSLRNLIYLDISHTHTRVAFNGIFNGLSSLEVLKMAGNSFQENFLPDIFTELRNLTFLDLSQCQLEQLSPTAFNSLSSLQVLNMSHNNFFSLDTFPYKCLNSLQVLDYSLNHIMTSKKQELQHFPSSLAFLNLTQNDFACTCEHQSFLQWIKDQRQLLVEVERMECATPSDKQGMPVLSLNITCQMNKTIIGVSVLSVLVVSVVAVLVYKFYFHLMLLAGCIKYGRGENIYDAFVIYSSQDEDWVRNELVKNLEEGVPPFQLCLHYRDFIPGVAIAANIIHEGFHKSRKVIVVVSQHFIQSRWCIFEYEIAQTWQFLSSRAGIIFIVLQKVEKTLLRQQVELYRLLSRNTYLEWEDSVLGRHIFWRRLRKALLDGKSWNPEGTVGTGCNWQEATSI

What was measured:
human TLR4/MD-2 complex [1] = biological target: T1, human TLR4/MD-2 complex (human, UniProt O00206 24-631; Q9Y6Y9 19-160); experiment: SPR; competition: 100 nM hS100A9 injected (3 min, 30 ul/min) together with soluble hTLR4/MD2 over immobilised hTLR4/MD2 or RAGE; HBS-P with 10 uM Zn2+ and 1 mM Ca2+; responses at late association; both purified
T1 construct: Toll-like receptor 4, human; MD-2, human; Soluble recombinant complex; also called hTLR4/MD-2; hTLR4/MD2; source: bought: R&D Systems (carrier-free recombinant)

human TLR4/MD-2 complex [2] = biological target: T1, human TLR4/MD-2 complex; experiment: SPR; S100 proteins injected (100 nM, or a range of concentrations; 30 ul/min) over human TLR4/MD2 immobilised by amine coupling (~3,000 RU); HBS-P pH 7.4 with 1 mM Ca2+ and 10 uM Zn2+; fit to a 1:1 model with mass transfer; half-maximal binding from responses at late association (apparent); both …

binding (human TLR4/MD-2 complex [1]): binds
B1: human S100A9 (natural protein, UniProt P06702 1-114, looked up)
chain: MTCKMSQLERNIETIINTFHQYSVKLGHPDTLNQGEFKELVRKDLQNFLKKENKNEKVIEHIMEDLDTNADKQLSFEEFIMLMARLTWASHEKMHEGDEGPGHHHKPGLGEGTP
notes: S100A9, human; called homodimeric; also called hS100A9; homodimeric S100A9; source: either produced recombinantly in Escherichia coli or purified from granulocytes

binding (human TLR4/MD-2 complex [2]): binds weakly
B2: human S100A8 (protein, UniProt P05109 1-93)
chain: MLTELEKALNSIIDVYHKYSLIKGNFHAVYRDDLKKLLETECPQYIRKKGADVWFKELDINTDGAVNFQEFLILVIKMGVAAHKKSHEESHKE
